# PubChem BioAssay AID652243, Drosophila RNAi Screening Center – 2013
# Aim: 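Fly regulators of androgen-dependent reporter output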 (primary screen)
# Cell system: Drosophila S2R+ cells
# Knock-down reagent: long dsRNA against Drosophila genes
# Time to read-out: 72 h (48 h, then 24 h hormone)
# Conditions: synthetic androgen R1881 at 10 nM for 24 h
# Measured: 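Firefly light from an androgen-responsive reporter and Renilla control light per well, raw and unnormalised, for each of two replicates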
# Scale: firefly reporter light: higher = more light from androgen-responsive reporter; Renilla control light: higher = more constitutive control signal (cell number, transfection)
# Hit rule: 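Hit when the log firefly-to-Renilla ratio dropped or increased by a fixed fold versus the mean of GFP or LacZ controls across duplicate plates; lowering cut given as 1.5 and as 3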
# Calls: active = hit: reporter lowered or raised; inactive = no hit
# The deposit covers about 24,000 reagents; shown is an unselected part of those that have a named target and a result. Of all reagents, 246 (1%) are marked active. 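Plates not normalised; calls are printed but the firefly/Renilla ratio behind them is not deposited; fold cut for lowering reported inconsistently.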 The raw values are shown without normalisation. Names joined by + are all predicted targets of the reagent. The record does not give: the amount of reagent.
target gene,amplicon,"firefly reporter light, replicate 1","firefly reporter light, replicate 2","Renilla control light, replicate 1","Renilla control light, replicate 2",activity call
syd (GeneID 43905),DRSC10963,7.32e5,6.35e5,1.79e6,1.63e6,inactive
syd (GeneID 43905),DRSC24418,3.49e5,2.10e5,8.96e5,5.42e5,inactive
CG34050 (retired record) (GeneID 3885634),DRSC09067,2.14e5,1.32e5,4.15e5,2.11e5,inactive
CG34050 (retired record) (GeneID 3885634),DRSC26231,3.53e5,3.02e5,7.56e5,6.06e5,inactive
CAH14 (GeneID 37359),DRSC04234,3.49e5,4.59e5,3.10e6,3.41e6,inactive
CAH14 (GeneID 37359),DRSC22160,1.05e6,8.77e5,2.58e6,1.45e6,inactive
otp + asRNA:CR43160,DRSC28164,5.24e5,3.99e5,1.51e6,1.17e6,inactive
MED15 (GeneID 33223),DRSC00267,68199,1.44e5,7.69e5,5.31e5,inactive
MED15 (GeneID 33223),DRSC23615,3.86e5,5.31e5,7.26e5,7.27e5,inactive
CG32170 (GeneID 317894),DRSC09452,85668,77843,3.60e5,3.70e5,inactive
Cyp6a14 (GeneID 35835),DRSC07376,1.15e5,1.21e5,1.09e6,9.33e5,inactive
Cyp6a14 (GeneID 35835),DRSC24704,4.01e5,2.66e5,5.98e5,5.34e5,inactive
CG15861 (GeneID 37990),DRSC04274,1.88e5,2.09e5,1.39e6,1.33e6,inactive
CG15861 (GeneID 37990),DRSC29309,6.73e5,7.09e5,1.15e6,1.25e6,inactive
CG15578 (GeneID 50379),DRSC18066,3.35e5,3.66e5,2.70e6,2.71e6,inactive
CG10912 (GeneID 37059),DRSC06009,5.40e5,1.71e5,1.07e6,2.60e5,inactive
CG10912 (GeneID 37059),DRSC25420,7.97e5,9.97e5,9.39e5,1.01e6,inactive
kek3 (GeneID 34912),DRSC03553,3.81e5,3.27e5,2.71e6,2.08e6,inactive
kek3 (GeneID 34912),DRSC22830,5.42e5,1.18e6,8.63e5,1.41e6,inactive
kek3 (GeneID 34912),DRSC24250,3.20e5,3.78e5,4.13e5,5.04e5,inactive
CG32856 (GeneID 318251),DRSC13124,1.61e5,1.62e5,2.55e5,2.53e5,inactive
CG32856 (GeneID 318251),DRSC29746,5.22e5,3.80e5,1.34e6,1.57e6,inactive
CG9641 (GeneID 33502),DRSC00721,8.08e5,6.83e5,3.61e6,2.39e6,inactive
CG9641 (GeneID 33502),DRSC27080,3.23e5,3.30e5,7.55e5,6.03e5,inactive
CG14932 (GeneID 34589),DRSC02414,2.25e5,2.49e5,1.15e6,1.84e6,inactive
CG14932 (GeneID 34589),DRSC26333,4.32e5,4.00e5,7.01e5,8.13e5,inactive
GEFmeso (GeneID 37134),DRSC06748,2.56e5,3.67e5,3.67e5,4.88e5,inactive
GEFmeso (GeneID 37134),DRSC06940,85933,93219,1.74e6,1.48e6,inactive
GEFmeso (GeneID 37134),DRSC21475,4.91e5,5.28e5,1.63e6,1.61e6,inactive
lectin-21Cb (GeneID 33242),DRSC00355,1.37e5,1.44e5,1.13e6,1.11e6,inactive
Osi10b (GeneID 40764),DRSC12279,1.04e5,1.46e5,2.21e6,2.08e6,inactive
CG7896 (GeneID 43552),DRSC16335,94278,75022,7.04e5,5.53e5,inactive
eIF4E1 (GeneID 45525),DRSC11342,8.45e5,1.05e6,1.08e6,1.07e6,inactive
eIF4E1 (GeneID 45525),DRSC23583,5.76e5,3.94e5,3.88e5,3.02e5,inactive
Rsf1 (GeneID 34370),DRSC03423,2.63e5,2.79e5,1.48e6,1.87e6,inactive
Rsf1 (GeneID 34370),DRSC21953,8.21e5,6.90e5,1.85e6,1.38e6,inactive
Rsf1 (GeneID 34370),DRSC27444,2.54e5,2.78e5,6.15e5,6.38e5,inactive
CG8892 (GeneID 33719),DRSC03121,8.84e5,1.01e6,1.50e6,1.76e6,inactive
LKRSDH (GeneID 34064),DRSC03015,1.23e6,1.21e6,2.98e6,3.00e6,inactive
LKRSDH (GeneID 34064),DRSC24572,5.97e5,6.05e5,8.01e5,9.13e5,inactive
Muc68D (GeneID 39326),DRSC10569,1.20e6,1.50e6,1.18e6,2.70e6,inactive
nkd (GeneID 44843),DRSC11376,2.91e5,1.36e5,2.62e6,1.55e6,inactive
nkd (GeneID 44843),DRSC26962,8.08e5,5.44e5,1.14e6,6.33e5,inactive
Polr2M (GeneID 42309),DRSC15513,2.79e5,2.60e5,2.26e6,2.56e6,inactive
Polr2M (GeneID 42309),DRSC25856,3.02e5,2.79e5,7.74e5,8.79e5,inactive
park (GeneID 40336),DRSC11618,45874,30384,3.45e5,3.49e5,inactive
CG11106 (GeneID 32062),DRSC19381,5.49e5,4.59e5,3.78e6,2.83e6,inactive
gudu (GeneID 34014),DRSC02820,2.89e5,2.62e5,2.72e6,2.02e6,inactive
botv (GeneID 37198),DRSC05949,4.37e5,6.17e5,1.24e6,1.29e6,inactive
botv (GeneID 37198),DRSC28034,4.68e5,6.29e5,9.35e5,1.04e6,inactive
CG9837 (GeneID 41057),DRSC16573,1.18e5,1.05e5,2.08e6,2.33e6,inactive
CG9837 (GeneID 41057),DRSC27966,6.62e5,4.88e5,2.17e6,1.44e6,inactive
Pvf1 (GeneID 32876),DRSC20024,1.17e5,1.38e5,1.01e6,1.16e6,inactive
Pvf1 (GeneID 32876),DRSC36824,,,,,inactive
Pvf1 (GeneID 32876),DRSC36825,,,,,inactive

Copied from the listing for reference:
target gene,amplicon,"firefly reporter light, replicate 1","firefly reporter light, replicate 2","Renilla control light, replicate 1","Renilla control light, replicate 2",activity call
Rsf1 (GeneID 34370),DRSC21953,8.21e5,6.90e5,1.85e6,1.38e6,inactive
Rsf1 (GeneID 34370),DRSC27444,2.54e5,2.78e5,6.15e5,6.38e5,inactive
CG8892 (GeneID 33719),DRSC03121,8.84e5,1.01e6,1.50e6,1.76e6,inactive
